Reference: the supplement of paper PMC12823440, “Inhibitors supercharge kinase turnover through native proteolytic circuits” (Nature, 2025)
Where a name gives a salt, the structure may show the parent alone. The list shows a part of the results. Hit calls seldom repeat between salt and free forms of one compound.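 Kinases were expressed as nanoluciferase fusions in K562 cells and luminescence was read every 4 h between 2 and 18 h as percent of control, DMSO set to 100% and a positive control to 0%. A time point counts as decreased when the signal drops significantly (2 sigma). The hit call is the authors' own, does not follow from the count of time points alone, and its rule is not shown.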

The chains behind the UniProt entries cited, without tags or fusion partners. Where a name states a change or a piece, a line headed by the entry shows the natural chain unless it says otherwise.
UniProt P36888, whole entry: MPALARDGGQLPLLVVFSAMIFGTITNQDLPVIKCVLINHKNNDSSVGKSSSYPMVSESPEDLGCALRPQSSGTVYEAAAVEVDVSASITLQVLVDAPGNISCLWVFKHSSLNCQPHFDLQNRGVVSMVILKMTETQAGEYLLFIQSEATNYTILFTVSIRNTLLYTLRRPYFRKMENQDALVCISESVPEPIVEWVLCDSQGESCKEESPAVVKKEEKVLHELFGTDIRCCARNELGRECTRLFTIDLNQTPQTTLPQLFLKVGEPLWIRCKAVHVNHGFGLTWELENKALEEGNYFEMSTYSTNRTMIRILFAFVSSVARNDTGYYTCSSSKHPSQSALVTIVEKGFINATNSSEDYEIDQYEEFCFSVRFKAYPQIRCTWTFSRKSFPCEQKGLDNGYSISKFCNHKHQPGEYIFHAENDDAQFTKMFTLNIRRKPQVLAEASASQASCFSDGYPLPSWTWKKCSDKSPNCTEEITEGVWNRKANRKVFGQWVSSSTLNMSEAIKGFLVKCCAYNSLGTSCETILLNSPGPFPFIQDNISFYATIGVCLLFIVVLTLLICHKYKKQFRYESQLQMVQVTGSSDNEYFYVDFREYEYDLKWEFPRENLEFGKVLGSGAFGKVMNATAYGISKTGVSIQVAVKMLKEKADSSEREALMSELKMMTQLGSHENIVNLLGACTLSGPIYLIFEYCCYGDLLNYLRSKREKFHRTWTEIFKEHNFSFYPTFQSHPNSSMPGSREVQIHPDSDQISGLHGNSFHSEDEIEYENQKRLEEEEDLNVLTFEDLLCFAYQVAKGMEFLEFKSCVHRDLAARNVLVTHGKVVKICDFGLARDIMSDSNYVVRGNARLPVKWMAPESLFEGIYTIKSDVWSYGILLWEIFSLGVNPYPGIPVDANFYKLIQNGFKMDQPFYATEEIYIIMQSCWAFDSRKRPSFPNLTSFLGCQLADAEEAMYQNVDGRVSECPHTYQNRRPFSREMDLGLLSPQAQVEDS
UniProt P49840: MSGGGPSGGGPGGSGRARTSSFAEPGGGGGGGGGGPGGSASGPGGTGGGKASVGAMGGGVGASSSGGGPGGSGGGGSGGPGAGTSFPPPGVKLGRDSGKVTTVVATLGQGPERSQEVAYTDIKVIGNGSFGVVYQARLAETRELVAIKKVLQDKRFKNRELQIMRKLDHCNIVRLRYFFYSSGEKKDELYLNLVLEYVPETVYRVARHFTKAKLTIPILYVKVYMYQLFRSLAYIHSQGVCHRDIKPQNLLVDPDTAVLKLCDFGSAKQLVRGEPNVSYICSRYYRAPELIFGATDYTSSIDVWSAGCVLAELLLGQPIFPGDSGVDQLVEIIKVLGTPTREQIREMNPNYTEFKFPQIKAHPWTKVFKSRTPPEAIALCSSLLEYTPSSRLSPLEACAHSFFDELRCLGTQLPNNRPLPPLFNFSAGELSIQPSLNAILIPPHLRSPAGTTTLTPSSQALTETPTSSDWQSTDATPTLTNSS
UniProt Q9Y616: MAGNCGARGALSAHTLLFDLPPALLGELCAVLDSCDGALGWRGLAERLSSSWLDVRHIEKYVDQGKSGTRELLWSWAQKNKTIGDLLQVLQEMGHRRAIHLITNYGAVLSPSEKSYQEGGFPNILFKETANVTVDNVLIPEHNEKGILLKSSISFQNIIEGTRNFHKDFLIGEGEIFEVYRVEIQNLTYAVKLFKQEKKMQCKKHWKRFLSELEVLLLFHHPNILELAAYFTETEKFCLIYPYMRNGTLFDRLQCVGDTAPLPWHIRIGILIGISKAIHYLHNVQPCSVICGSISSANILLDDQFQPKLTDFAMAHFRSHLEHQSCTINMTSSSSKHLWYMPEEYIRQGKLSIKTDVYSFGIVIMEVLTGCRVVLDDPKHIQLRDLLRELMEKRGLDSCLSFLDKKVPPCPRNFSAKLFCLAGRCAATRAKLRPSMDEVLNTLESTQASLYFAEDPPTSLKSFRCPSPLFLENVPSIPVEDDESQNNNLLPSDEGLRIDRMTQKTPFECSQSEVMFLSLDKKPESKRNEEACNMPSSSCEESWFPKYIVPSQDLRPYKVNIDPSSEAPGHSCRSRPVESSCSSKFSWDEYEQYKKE
UniProt P23458: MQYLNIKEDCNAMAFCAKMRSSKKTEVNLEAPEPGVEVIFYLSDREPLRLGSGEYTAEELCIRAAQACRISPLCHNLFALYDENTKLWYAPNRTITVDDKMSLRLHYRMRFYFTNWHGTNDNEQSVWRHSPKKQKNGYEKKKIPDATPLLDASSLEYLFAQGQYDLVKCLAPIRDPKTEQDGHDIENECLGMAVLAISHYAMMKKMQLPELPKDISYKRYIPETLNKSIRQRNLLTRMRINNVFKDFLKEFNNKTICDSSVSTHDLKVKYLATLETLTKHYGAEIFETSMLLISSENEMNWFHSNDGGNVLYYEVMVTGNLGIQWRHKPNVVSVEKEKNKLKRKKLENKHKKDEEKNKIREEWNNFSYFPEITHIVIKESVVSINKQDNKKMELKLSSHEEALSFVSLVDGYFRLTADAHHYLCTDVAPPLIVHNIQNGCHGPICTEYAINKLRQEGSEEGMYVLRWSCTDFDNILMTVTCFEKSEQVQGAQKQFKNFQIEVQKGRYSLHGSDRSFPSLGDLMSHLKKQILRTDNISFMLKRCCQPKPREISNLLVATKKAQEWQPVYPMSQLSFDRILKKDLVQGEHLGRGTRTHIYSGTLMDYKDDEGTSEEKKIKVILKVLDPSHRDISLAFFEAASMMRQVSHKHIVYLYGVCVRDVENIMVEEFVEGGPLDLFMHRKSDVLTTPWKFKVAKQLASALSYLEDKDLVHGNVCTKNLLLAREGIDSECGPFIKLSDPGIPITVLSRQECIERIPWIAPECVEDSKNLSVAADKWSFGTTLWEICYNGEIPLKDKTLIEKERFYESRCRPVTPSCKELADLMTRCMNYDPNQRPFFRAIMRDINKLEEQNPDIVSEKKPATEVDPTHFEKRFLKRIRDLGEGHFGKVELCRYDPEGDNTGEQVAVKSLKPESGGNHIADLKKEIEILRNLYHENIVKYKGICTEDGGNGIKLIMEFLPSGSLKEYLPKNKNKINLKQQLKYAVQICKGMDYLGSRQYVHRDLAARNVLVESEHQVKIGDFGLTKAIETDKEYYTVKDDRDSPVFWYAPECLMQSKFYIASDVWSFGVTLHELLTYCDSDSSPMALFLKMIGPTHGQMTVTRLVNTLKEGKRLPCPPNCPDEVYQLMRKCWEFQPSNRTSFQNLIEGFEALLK
UniProt P53667: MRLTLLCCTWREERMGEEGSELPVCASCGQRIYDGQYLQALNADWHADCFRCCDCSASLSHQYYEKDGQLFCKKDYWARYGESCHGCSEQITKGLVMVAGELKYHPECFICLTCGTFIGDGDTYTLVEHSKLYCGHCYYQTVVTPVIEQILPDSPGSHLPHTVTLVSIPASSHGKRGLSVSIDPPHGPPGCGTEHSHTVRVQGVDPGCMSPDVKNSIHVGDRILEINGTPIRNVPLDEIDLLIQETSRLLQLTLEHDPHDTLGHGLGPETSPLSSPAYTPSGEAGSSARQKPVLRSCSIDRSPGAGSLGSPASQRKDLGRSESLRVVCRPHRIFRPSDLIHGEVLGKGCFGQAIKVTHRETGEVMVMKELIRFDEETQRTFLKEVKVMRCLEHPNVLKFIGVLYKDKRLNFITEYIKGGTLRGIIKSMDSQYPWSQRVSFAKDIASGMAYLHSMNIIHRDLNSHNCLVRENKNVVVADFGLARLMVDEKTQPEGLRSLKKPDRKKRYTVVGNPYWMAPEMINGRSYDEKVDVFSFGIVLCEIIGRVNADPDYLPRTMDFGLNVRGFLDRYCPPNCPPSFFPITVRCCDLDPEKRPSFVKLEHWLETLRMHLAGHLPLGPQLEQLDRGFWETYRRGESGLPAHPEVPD
UniProt Q8IWU2: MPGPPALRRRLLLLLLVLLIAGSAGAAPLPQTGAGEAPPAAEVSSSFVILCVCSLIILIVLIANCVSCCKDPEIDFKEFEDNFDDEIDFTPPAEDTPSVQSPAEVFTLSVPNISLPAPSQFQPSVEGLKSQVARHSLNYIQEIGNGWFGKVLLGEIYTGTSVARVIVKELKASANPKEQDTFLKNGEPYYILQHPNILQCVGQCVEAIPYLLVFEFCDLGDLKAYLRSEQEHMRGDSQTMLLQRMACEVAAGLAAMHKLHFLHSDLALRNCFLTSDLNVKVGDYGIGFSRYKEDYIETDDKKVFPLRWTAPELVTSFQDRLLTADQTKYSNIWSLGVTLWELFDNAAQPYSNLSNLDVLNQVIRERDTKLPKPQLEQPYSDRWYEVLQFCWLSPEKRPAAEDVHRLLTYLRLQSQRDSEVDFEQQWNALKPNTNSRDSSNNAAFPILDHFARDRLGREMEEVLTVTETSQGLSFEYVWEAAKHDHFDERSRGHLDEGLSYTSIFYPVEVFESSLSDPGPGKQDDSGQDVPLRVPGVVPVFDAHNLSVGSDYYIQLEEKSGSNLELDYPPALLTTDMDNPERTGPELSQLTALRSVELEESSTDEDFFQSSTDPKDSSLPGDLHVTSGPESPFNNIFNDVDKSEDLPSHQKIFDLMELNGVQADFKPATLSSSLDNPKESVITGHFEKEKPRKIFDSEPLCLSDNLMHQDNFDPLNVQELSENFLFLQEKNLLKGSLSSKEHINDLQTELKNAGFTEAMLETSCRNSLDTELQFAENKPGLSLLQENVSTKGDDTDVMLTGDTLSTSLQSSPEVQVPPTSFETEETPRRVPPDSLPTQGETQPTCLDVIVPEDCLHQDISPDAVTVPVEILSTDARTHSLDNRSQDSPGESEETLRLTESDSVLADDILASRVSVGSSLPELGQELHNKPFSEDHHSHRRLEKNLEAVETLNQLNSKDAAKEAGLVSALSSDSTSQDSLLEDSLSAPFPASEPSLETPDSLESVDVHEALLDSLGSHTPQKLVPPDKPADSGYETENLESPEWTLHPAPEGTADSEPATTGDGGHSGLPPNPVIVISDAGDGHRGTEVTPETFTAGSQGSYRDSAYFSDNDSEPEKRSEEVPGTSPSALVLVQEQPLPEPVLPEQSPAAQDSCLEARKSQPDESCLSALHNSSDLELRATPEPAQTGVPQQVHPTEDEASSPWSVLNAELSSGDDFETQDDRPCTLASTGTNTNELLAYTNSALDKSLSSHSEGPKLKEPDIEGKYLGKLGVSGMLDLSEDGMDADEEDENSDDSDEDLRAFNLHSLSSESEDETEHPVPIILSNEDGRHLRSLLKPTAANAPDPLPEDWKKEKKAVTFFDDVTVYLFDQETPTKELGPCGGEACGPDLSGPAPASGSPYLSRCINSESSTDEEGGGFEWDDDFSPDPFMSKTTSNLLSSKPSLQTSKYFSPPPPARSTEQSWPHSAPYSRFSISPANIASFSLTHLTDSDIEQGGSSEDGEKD
UniProt Q12851: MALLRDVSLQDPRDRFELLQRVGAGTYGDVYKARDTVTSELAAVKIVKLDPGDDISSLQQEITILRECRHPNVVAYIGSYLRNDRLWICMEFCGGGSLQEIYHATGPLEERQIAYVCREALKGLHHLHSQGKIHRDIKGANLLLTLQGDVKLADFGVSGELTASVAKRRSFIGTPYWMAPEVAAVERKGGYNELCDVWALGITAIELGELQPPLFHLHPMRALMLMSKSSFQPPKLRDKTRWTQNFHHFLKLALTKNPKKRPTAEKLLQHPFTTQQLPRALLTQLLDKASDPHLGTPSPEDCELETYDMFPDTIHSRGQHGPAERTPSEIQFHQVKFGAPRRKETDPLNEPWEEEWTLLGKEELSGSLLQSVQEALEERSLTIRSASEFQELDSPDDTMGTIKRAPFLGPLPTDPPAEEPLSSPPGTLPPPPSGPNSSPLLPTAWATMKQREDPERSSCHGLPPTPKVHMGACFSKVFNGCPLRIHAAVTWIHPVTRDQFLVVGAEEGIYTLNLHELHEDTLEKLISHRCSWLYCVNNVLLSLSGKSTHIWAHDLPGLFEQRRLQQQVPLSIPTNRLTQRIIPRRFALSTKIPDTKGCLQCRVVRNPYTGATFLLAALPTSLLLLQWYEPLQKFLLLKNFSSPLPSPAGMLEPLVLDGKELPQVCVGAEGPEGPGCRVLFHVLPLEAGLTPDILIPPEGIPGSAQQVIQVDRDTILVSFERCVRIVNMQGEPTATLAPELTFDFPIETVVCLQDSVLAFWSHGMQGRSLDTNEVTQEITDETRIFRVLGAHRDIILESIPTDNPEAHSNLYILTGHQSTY

What was measured:
Test in all cases: kinase-Nluc reporter destabilization hit call (1 = scored as downregulated) (binary); higher = compound decreases kinase abundance
Settings in all cases: K562; 2-18 h
ERN1 = ERN1 (UniProt O75460)
FGFR1 = FGFR1 (UniProt P11362)
FGFR2 = FGFR2 (UniProt P21802)
FGFR3 = FGFR3 (UniProt P22607)
FGR = FGR (UniProt P09769)
FLT3 = FLT3 (UniProt P36888)
FYN = FYN (UniProt P06241)
GSK3A = GSK3A (UniProt P49840)
HER2 = HER2 (UniProt P04626)
INSRR = INSRR (UniProt P14616)
IRAK3 = IRAK3 (UniProt Q9Y616)
JAK1 = JAK1 (UniProt P23458)
LCK = LCK (UniProt P06239)
LIMK1 = LIMK1 (UniProt P53667)
LIMK2 = LIMK2 (UniProt P53671)
LMTK2 = LMTK2 (UniProt Q8IWU2)
LYN = LYN (UniProt P07948)
MAP2K1 = MAP2K1 (UniProt Q02750)
MAP2K2 = MAP2K2 (UniProt P36507)
MAP4K2 = MAP4K2 (UniProt Q12851)

SMILES | kinase-Nluc reporter destabilization hit call (ERN1) | kinase-Nluc reporter destabilization hit call (FGFR1) | kinase-Nluc reporter destabilization hit call (FGFR2) | kinase-Nluc reporter destabilization hit call (FGFR3) | kinase-Nluc reporter destabilization hit call (FGR) | kinase-Nluc reporter destabilization hit call (FLT3) | kinase-Nluc reporter destabilization hit call (FYN) | kinase-Nluc reporter destabilization hit call (GSK3A) | kinase-Nluc reporter destabilization hit call (HER2) | kinase-Nluc reporter destabilization hit call (INSRR) | kinase-Nluc reporter destabilization hit call (IRAK3) | kinase-Nluc reporter destabilization hit call (JAK1) | kinase-Nluc reporter destabilization hit call (LCK) | kinase-Nluc reporter destabilization hit call (LIMK1) | kinase-Nluc reporter destabilization hit call (LIMK2) | kinase-Nluc reporter destabilization hit call (LMTK2) | kinase-Nluc reporter destabilization hit call (LYN) | kinase-Nluc reporter destabilization hit call (MAP2K1) | kinase-Nluc reporter destabilization hit call (MAP2K2) | kinase-Nluc reporter destabilization hit call (MAP4K2)
COC(=O)c1ccc2c(C(=Nc3ccc(N(C)C(=O)CN4CCN(C)CC4)cc3)c3ccccc3)c(O)[nH]c2c1 [Nintedanib] (2.5 µM) | inactive: 0 | inactive: 0 | inactive: 0 | inactive: 0 | inactive: 0 | inactive: 0 | inactive: 0 | inactive: 0 | inactive: 0 | inactive: 0 | inactive: 0 | inactive: 0 | inactive: 0 | inactive: 0 | inactive: 0 | inactive: 0 | inactive: 0 | inactive: 0 | inactive: 0 | inactive: 0
CC(C)c1ccc2oc3nc(N)c(C(=O)O)cc3c(=O)c2c1 [Amlexanox] (10 µM) | inactive: 0 | inactive: 0 | inactive: 0 | inactive: 0 | inactive: 0 | inactive: 0 | inactive: 0 | inactive: 0 | inactive: 0 | inactive: 0 | inactive: 0 | inactive: 0 | inactive: 0 | inactive: 0 | inactive: 0 | inactive: 0 | inactive: 0 | inactive: 0 | inactive: 0 | inactive: 0
C=CC(=O)N1C[C@H](Nc2ncnc3[nH]ccc23)CC[C@@H]1C [Ritlecitinib] (10 µM) | inactive: 0 | inactive: 0 | inactive: 0 | inactive: 0 | inactive: 0 | inactive: 0 | inactive: 0 | inactive: 0 | inactive: 0 | inactive: 0 | inactive: 0 | inactive: 0 | inactive: 0 | inactive: 0 | inactive: 0 | inactive: 0 | inactive: 0 | inactive: 0 | inactive: 0 | inactive: 0
Nc1nc(N)c(N=O)c(OCC2CCCCC2)n1 (10 µM) | inactive: 0 | inactive: 0 | inactive: 0 | inactive: 0 | inactive: 0 | inactive: 0 | inactive: 0 | inactive: 0 | inactive: 0 | inactive: 0 | inactive: 0 | inactive: 0 | inactive: 0 | inactive: 0 | inactive: 0 | inactive: 0 | inactive: 0 | inactive: 0 | inactive: 0 | inactive: 0
Cn1nc(C(C)(C)C)cc1NC(=O)Nc1ccc(Oc2ccncc2)cc1 (10 µM) | inactive: 0 | inactive: 0 | inactive: 0 | inactive: 0 | inactive: 0 | inactive: 0 | inactive: 0 | inactive: 0 | inactive: 0 | inactive: 0 | inactive: 0 | inactive: 0 | inactive: 0 | inactive: 0 | inactive: 0 | inactive: 0 | inactive: 0 | inactive: 0 | inactive: 0 | inactive: 0
CC(C)c1cnn2c(NCc3ccccc3)cc(NC[C@H]3CCNC[C@@H]3O)nc12 [Samuraciclib (hydrochloride)] (10 µM) | inactive: 0 | inactive: 0 | inactive: 0 | inactive: 0 | inactive: 0 | inactive: 0 | inactive: 0 | inactive: 0 | inactive: 0 | inactive: 0 | inactive: 0 | inactive: 0 | inactive: 0 | inactive: 0 | inactive: 0 | inactive: 0 | inactive: 0 | inactive: 0 | inactive: 0 | inactive: 0
CN(C)CCOc1ccc(-c2nc(-c3ccncc3)c(-c3ccc4c(c3)CC/C4=N\O)[nH]2)cc1 (10 µM) | inactive: 0 | inactive: 0 | inactive: 0 | inactive: 0 | inactive: 0 | inactive: 0 | inactive: 0 | inactive: 0 | inactive: 0 | inactive: 0 | inactive: 0 | inactive: 0 | inactive: 0 | inactive: 0 | inactive: 0 | inactive: 0 | inactive: 0 | inactive: 0 | inactive: 0 | inactive: 0
COc1c(CC=C(C)C)c(O)cc2oc(=O)c(-c3ccc(O)cc3O)cc12 [Glycycoumarin] (10 µM) | inactive: 0 | inactive: 0 | inactive: 0 | inactive: 0 | inactive: 0 | inactive: 0 | inactive: 0 | inactive: 0 | inactive: 0 | inactive: 0 | inactive: 0 | inactive: 0 | inactive: 0 | inactive: 0 | inactive: 0 | inactive: 0 | inactive: 0 | inactive: 0 | inactive: 0 | inactive: 0
CCn1c(=O)c2cc(C(N)=O)c(N)nc2n(C2CC2)c1=O (10 µM) | inactive: 0 | inactive: 0 | inactive: 0 | inactive: 0 | inactive: 0 | inactive: 0 | inactive: 0 | inactive: 0 | inactive: 0 | inactive: 0 | inactive: 0 | inactive: 0 | inactive: 0 | inactive: 0 | inactive: 0 | inactive: 0 | inactive: 0 | inactive: 0 | inactive: 0 | inactive: 0
CCN(CCCOc1ccc2c(Nc3cc(CC(=O)Nc4cccc(F)c4)[nH]n3)ncnc2c1)CCOP(=O)(O)O [Barasertib] (10 µM) | inactive: 0 | inactive: 0 | inactive: 0 | inactive: 0 | inactive: 0 | inactive: 0 | inactive: 0 | inactive: 0 | inactive: 0 | inactive: 0 | inactive: 0 | inactive: 0 | inactive: 0 | inactive: 0 | inactive: 0 | inactive: 0 | inactive: 0 | inactive: 0 | inactive: 0 | inactive: 0
Brc1c(Br)c(Br)c2n[nH]nc2c1Br (10 µM) | inactive: 0 | inactive: 0 | inactive: 0 | inactive: 0 | inactive: 0 | inactive: 0 | inactive: 0 | inactive: 0 | inactive: 0 | inactive: 0 | inactive: 0 | inactive: 0 | inactive: 0 | inactive: 0 | inactive: 0 | inactive: 0 | inactive: 0 | inactive: 0 | inactive: 0 | inactive: 0
CN1CCC(Nc2ncc3ncnc(Nc4ccc(F)c(Cl)c4)c3n2)CC1 [Falnidamol] (10 µM) | inactive: 0 | inactive: 0 | inactive: 0 | inactive: 0 | inactive: 0 | inactive: 0 | inactive: 0 | inactive: 0 | inactive: 0 | inactive: 0 | inactive: 0 | inactive: 0 | inactive: 0 | inactive: 0 | inactive: 0 | inactive: 0 | inactive: 0 | inactive: 0 | inactive: 0 | inactive: 0
CN1CCN(C2CCN(C(=O)Nc3cc(Oc4ccc(NC(=O)C5(C(=O)Nc6ccc(F)cc6)CC5)c(F)c4)ccn3)CC2)CC1 [Golvatinib] (2.5 µM) | inactive: 0 | inactive: 0 | inactive: 0 | inactive: 0 | inactive: 0 | inactive: 0 | inactive: 0 | inactive: 0 | inactive: 0 | inactive: 0 | inactive: 0 | inactive: 0 | inactive: 0 | inactive: 0 | inactive: 0 | inactive: 0 | inactive: 0 | inactive: 0 | inactive: 0 | inactive: 0
CC1(C)CC=C(c2nc(C3CC(C)(C)OC(C)(C)C3)ccc2NC(=O)c2nc(C#N)c[nH]2)CC1 [Edicotinib] (2.5 µM) | inactive: 0 | inactive: 0 | inactive: 0 | inactive: 0 | inactive: 0 | inactive: 0 | inactive: 0 | inactive: 0 | inactive: 0 | inactive: 0 | inactive: 0 | inactive: 0 | inactive: 0 | inactive: 0 | inactive: 0 | inactive: 0 | inactive: 0 | inactive: 0 | inactive: 0 | inactive: 0
O=C1NCCc2[nH]c(-c3ccnc(-c4cnc5ccccc5c4)c3)cc21 (10 µM) | inactive: 0 | inactive: 0 | inactive: 0 | inactive: 0 | inactive: 0 | inactive: 0 | inactive: 0 | inactive: 0 | inactive: 0 | inactive: 0 | inactive: 0 | inactive: 0 | inactive: 0 | inactive: 0 | inactive: 0 | inactive: 0 | inactive: 0 | inactive: 0 | inactive: 0 | inactive: 0
CC(C)(C#N)c1ccc(N2C(=O)OCc3cnc4ccc(-c5cnc6ccccc6c5)cc4c32)cc1 (2.5 µM) | inactive: 0 | inactive: 0 | inactive: 0 | inactive: 0 | inactive: 0 | inactive: 0 | inactive: 0 | inactive: 0 | active: 1 | inactive: 0 | inactive: 0 | inactive: 0 | inactive: 0 | inactive: 0 | inactive: 0 | inactive: 0 | inactive: 0 | inactive: 0 | inactive: 0 | inactive: 0
CC(C)n1cnc2c(NCc3cccc(C(F)(F)F)c3)ncnc21 [Longdaysin] (10 µM) | inactive: 0 | inactive: 0 | inactive: 0 | inactive: 0 | inactive: 0 | inactive: 0 | inactive: 0 | inactive: 0 | inactive: 0 | inactive: 0 | inactive: 0 | inactive: 0 | inactive: 0 | inactive: 0 | inactive: 0 | inactive: 0 | inactive: 0 | inactive: 0 | inactive: 0 | inactive: 0
CN1CCN(S(=O)(=O)c2ccc(-c3cnc(N)c(C(=O)Nc4cccnc4)n3)cc2)CC1 (10 µM) | inactive: 0 | inactive: 0 | inactive: 0 | inactive: 0 | inactive: 0 | inactive: 0 | inactive: 0 | inactive: 0 | inactive: 0 | inactive: 0 | inactive: 0 | inactive: 0 | inactive: 0 | inactive: 0 | inactive: 0 | inactive: 0 | inactive: 0 | inactive: 0 | inactive: 0 | inactive: 0

Exported with tabs: 2 of the compounds above.
SMILES	kinase-Nluc reporter destabilization hit call (ERN1)	kinase-Nluc reporter destabilization hit call (FGFR1)	kinase-Nluc reporter destabilization hit call (FGFR2)	kinase-Nluc reporter destabilization hit call (FGFR3)	kinase-Nluc reporter destabilization hit call (FGR)	kinase-Nluc reporter destabilization hit call (FLT3)	kinase-Nluc reporter destabilization hit call (FYN)	kinase-Nluc reporter destabilization hit call (GSK3A)	kinase-Nluc reporter destabilization hit call (HER2)	kinase-Nluc reporter destabilization hit call (INSRR)	kinase-Nluc reporter destabilization hit call (IRAK3)	kinase-Nluc reporter destabilization hit call (JAK1)	kinase-Nluc reporter destabilization hit call (LCK)	kinase-Nluc reporter destabilization hit call (LIMK1)	kinase-Nluc reporter destabilization hit call (LIMK2)	kinase-Nluc reporter destabilization hit call (LMTK2)	kinase-Nluc reporter destabilization hit call (LYN)	kinase-Nluc reporter destabilization hit call (MAP2K1)	kinase-Nluc reporter destabilization hit call (MAP2K2)	kinase-Nluc reporter destabilization hit call (MAP4K2)
CC1(C)CC=C(c2nc(C3CC(C)(C)OC(C)(C)C3)ccc2NC(=O)c2nc(C#N)c[nH]2)CC1 [Edicotinib] (2.5 µM)	inactive: 0	inactive: 0	inactive: 0	inactive: 0	inactive: 0	inactive: 0	inactive: 0	inactive: 0	inactive: 0	inactive: 0	inactive: 0	inactive: 0	inactive: 0	inactive: 0	inactive: 0	inactive: 0	inactive: 0	inactive: 0	inactive: 0	inactive: 0
O=C1NCCc2[nH]c(-c3ccnc(-c4cnc5ccccc5c4)c3)cc21 (10 µM)	inactive: 0	inactive: 0	inactive: 0	inactive: 0	inactive: 0	inactive: 0	inactive: 0	inactive: 0	inactive: 0	inactive: 0	inactive: 0	inactive: 0	inactive: 0	inactive: 0	inactive: 0	inactive: 0	inactive: 0	inactive: 0	inactive: 0	inactive: 0
